Measurements published in patent publication US20240368259A1.
These are yes or no findings as the source states them, for the method shown. In cells and extracts the contact can be indirect. Some results given as binding are weak or reduced against the parent protein; the word gives no strength. Values belong to the binder of their own block, whether it stands above or below them.

Amino acid sequences for entries named in this document (tags omitted). Residues count along the entry.
UniProt P36895, residues 24-532: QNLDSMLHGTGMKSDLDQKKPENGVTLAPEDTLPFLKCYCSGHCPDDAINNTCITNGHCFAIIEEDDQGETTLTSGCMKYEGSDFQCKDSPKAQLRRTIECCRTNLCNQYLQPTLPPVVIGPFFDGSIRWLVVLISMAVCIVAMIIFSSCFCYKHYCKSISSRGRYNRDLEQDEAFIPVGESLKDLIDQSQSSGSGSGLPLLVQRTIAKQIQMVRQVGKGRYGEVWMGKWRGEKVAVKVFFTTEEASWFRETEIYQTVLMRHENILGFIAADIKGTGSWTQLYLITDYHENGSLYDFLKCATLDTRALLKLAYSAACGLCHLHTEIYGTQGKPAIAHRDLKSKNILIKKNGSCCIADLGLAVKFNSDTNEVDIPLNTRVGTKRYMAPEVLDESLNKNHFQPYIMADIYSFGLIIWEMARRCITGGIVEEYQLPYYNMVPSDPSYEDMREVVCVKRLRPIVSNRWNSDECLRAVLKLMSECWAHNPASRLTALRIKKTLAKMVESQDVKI
UniProt Q13873, residues 27-1038: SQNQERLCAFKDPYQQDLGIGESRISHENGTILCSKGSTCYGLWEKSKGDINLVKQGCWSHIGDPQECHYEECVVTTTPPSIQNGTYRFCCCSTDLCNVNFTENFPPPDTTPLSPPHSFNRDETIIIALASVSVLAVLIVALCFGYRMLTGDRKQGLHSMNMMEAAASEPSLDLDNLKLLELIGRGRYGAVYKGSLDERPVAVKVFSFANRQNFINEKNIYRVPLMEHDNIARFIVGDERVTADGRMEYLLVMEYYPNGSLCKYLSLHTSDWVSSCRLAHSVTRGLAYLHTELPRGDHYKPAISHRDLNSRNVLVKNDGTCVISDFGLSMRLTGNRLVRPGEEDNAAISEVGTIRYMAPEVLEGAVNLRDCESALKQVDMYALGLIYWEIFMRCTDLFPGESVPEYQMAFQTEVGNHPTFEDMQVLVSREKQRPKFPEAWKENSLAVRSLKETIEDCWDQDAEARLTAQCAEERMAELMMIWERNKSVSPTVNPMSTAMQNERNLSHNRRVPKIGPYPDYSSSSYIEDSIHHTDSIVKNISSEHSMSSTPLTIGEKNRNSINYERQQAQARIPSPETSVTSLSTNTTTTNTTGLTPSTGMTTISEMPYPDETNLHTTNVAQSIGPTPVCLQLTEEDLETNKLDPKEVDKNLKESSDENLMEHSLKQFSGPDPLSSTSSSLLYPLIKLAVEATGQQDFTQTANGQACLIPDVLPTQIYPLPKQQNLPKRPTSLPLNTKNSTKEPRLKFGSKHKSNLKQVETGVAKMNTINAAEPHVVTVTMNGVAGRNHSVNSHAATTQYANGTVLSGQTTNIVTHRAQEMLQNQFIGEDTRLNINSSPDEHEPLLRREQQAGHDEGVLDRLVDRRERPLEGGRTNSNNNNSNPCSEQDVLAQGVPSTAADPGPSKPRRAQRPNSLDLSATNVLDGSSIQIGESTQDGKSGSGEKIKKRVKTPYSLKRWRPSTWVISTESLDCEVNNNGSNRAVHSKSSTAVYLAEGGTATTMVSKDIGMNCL

What was measured:
[1] = biological target: BMPR1A (UniProt P36895); assay: proximity ligation assay (the assay is not given)
[2] = biological target: BMPR2 on human breast cancer cells (PDX tumor cells, MDA-MB-231) (human) (UniProt Q13873); assay: proximity ligation assay on sorted PDX cells
[3] = biological target: BMPR2 on human breast cancer cells (PDX tumor cells, MDA-MB-231) (human) (UniProt Q13873); assay: proximity ligation assay on sorted PDX cells (FIG. 7A-B)

binding [1]: binds
B1: LEFTY1 (recombinant mouse Lefty1 protein, R&D Systems, catalog number 994-LF) (ligand, UniProt Q64280 78-368, looked up)
chain: FSQNLREVAGRFLVSETSTHLLVFGMEQRLPPNSELVQAVLRLFQEPVPRTALRRQKRLSPHSARARVTIEWLRFRDDGSNRTALIDSRLVSIHESGWKAFDVTEAVNFWQQLSRPRQPLLLQVSVQREHLGPGTWSSHKLVRFAAQGTPDGKGQGEPQLELHTLDLKDYGAQGNCDPEAPVTEGTRCCRQEMYLDLQGMKWAENWILEPPGFLTYECVGSCLQLPESLTSRWPFLGPRQCVASEMTSLPMIVSVKEGGRTRPQVVSLPNMRVQTCSCASDGALIPRRLQP

binding [2]: binds
binding [3]: binds
B2: human left-right determination factor 1 LEFTY1 (UniProtKB O75610, LFTY1_HUMAN) (ligand)
chain: RFSQSFREVAGRFLALEASTHLLVFGMEQRLPPNSELVQAVLRLFQEPVPKAALHRHGRLSPRSARARVTVEWLRVRDDGSNRTSLIDSRLVSVHESGWKAFDVTEAVNFWQQLSRPRQPLLLQVSVQREHLGPLASGAHKLVRFASQGAPAGLGEPQLELHTLDLGDYGAQGDCDPEAPMTEGTRCCRQEMYIDLQGMKWAENWVLEPPGFLAYECVGTCRQPPEALAFKWPFLGPRQCIASETDSLPMIVSIKEGGRTRPQVVSLPNMRVQKCSCASDGALVPRRLQP
